# Earlier results, collected in patent publication US20180214412A1, “IMMEDIATE RELEASE CANNABINOID FORMULATIONS” (CannTab Therapeutics Limited, priority 2017, published 2018).
# Details: in vivo
structure (smiles),measurement,value
"COC(=O)C1=C(C)NC(C)=C(C(=O)OC)C1c1ccccc1[N+](=O)[O-] [Nifedipine, nifedipine]",biological half life,2.5 h
